# Measurements reported in the supplement of paper PMC10338343.
# ± gives the standard deviation. The list shows a part of the results, in another mix than the full data. Many entries were measured with a wide error. The list shows a part of the results.
# Tests used:
# [1] = tested on: MILI (PIWIL2) piRISC loaded with L1MC piRNA (26 nt); experiment: pre-steady-state target cleavage rate (min^-1); higher = faster piRNA-guided slicing of the target; details: guide: L1MC piRNA 5'p-UAACUAAAUACUAUGCAAGCUGUAGG; auxiliary factor: none (no GTSF1)
# Outline: (§1)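 In HEPES–potassium acetate buffer at 33 °C, […] transcribed, DNA-blocked target RNA library was mixed with 1 nM active affinity-purified piRISC carrying one synthetic guide, with or without 500 nM GTSF1 partner protein, for 0–8 or 0–960 min. Uncleaved targets were sequenced and normalised to depth and to weakly complementary targets; three trials were pooled and k3 was capped at 0.0001 min^-1. The pre-steady-state cleavage rate followed from a burst-and-steady-state fit.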
# [2] = tested on: MIWI (PIWIL1) piRISC loaded with L1MC piRNA (30 nt); experiment: as above; details: guide: L1MC piRNA 5'p-UAACUAAAUACUAUGCAAGCUGUAGGUCCU; auxiliary factor: none (no GTSF1)
# Outline: as §1
# [3] = tested on: EfPiwi piRISC loaded with L1MC piRNA (26 nt); experiment: pre-steady-state target cleavage rate (min^-1); guide: L1MC piRNA 5'p-UAACUAAAUACUAUGCAAGCUGUAGG; MIWI and MILI are mouse PIWI proteins and EfPiwi is from a freshwater sponge; tags in brackets are library labels; higher = faster piRNA-guided slicing of the target
# Outline: as §1
# [4] = auxiliary factor: 500 nM Ephydatia muelleri Gtsf1
# [5] = auxiliary factor: none (no Gtsf1)
Sequence,pre-steady-state target cleavage rate [1],pre-steady-state target cleavage rate [2],"pre-steady-state target cleavage rate [3, 4]","pre-steady-state target cleavage rate [3, 5]"
UCCUGCUACACCUUGCAUAGUAUUUACAAA,0.00134 ± 0.0058,0.00208 ± 0.0047,0.00179 ± 0.0021,0.000167 ± 0.043
UCCUGGAUGAGCUUGCAUAGCUAUUUAGUUA,0.00154 ± 0.0048,0.00266 ± 0.0034,0.000505 ± 0.0069,0.000171 ± 0.04
UCCUCCUACAGCUUGCAAUGUAUUUACAAA,0.00095 ± 0.0055,0.000983 ± 0.0086,0.00167 ± 0.006,0.000185 ± 0.027
UCCUGGUACAGCAAGCAUAGUAUUUUCAAA,0.000867 ± 0.0097,0.000628 ± 0.015,0.00206 ± 0.0048,0.000143 ± 0.033
UCCUCCUACAGCUUGGUUAGUAUUUUCAAA,0.0011 ± 0.0061,0.000899 ± 0.0065,0.00157 ± 0.004,0.000121 ± 0.022
UCCUGGAACAGCUUGCAUAGUAUUAACAAA,0.000806 ± 0.006,0.00221 ± 0.0033,0.0032 ± 0.004,< 0.0001
UCCUCCUACAGCUUGCAUAGUUAAUACAAA,0.000905 ± 0.0049,0.000835 ± 0.006,0.00102 ± 0.0043,0.000207 ± 0.026
UCCUGGAUGUCCAUGCAUAGUAUUUUGUUA,0.00068 ± 0.012,0.00111 ± 0.0083,0.000213 ± 0.034,0.000321 ± 0.027
UCCUGCUACAGGUUGCAUAGUAUUUACAAA,0.00156 ± 0.0042,0.00144 ± 0.0053,0.00244 ± 0.0017,< 0.0001
UCCUGGAUGACCUAGCAUAGUAUUUAGUUA,0.00297 ± 0.0035,0.00132 ± 0.005,0.0121 ± 0.0072,0.000597 ± 0.012
UCCUCCUACAGCUUGCAGUAGUAUUUAGUUA,0.000318 ± 0.0091,0.000767 ± 0.0089,0.00539 ± 0.0033,0.00152 ± 0.0052
UCCUGCUACAGCAUCCAUAGUAUUUAGUUA,0.00196 ± 0.0049,0.000884 ± 0.0082,0.00233 ± 0.0017,< 0.0001
UCCUGGAACAGCUUGCAUAGAUUUUUCAAA,0.00111 ± 0.0048,0.000416 ± 0.0077,0.000868 ± 0.0041,0.000466 ± 0.014
UCCUGGAUGUGCUUGCAUAGAAUUAAGUUA,0.00121 ± 0.004,0.00167 ± 0.0036,0.001 ± 0.0051,0.000261 ± 0.03
UCCUGGAUGAGCUACCAUAGUAUUUAGAAA,0.000444 ± 0.012,0.000375 ± 0.0081,0.00151 ± 0.0029,0.000313 ± 0.017
UCCUGGUACAGCUUGCAUAGUAAAAAGAAA,0.00109 ± 0.0064,0.000461 ± 0.009,0.00282 ± 0.0033,0.000494 ± 0.018
UCCUGGAUGUCGUUGCUUAGUAAUUAGUUA,0.00286 ± 0.0034,0.000709 ± 0.011,0.000288 ± 0.015,0.000173 ± 0.047
UCCUCCUACAGCUUGCAUUCAAUUUUCAAA,0.000937 ± 0.0049,0.000635 ± 0.0092,0.00141 ± 0.0052,0.000293 ± 0.014
UCCUGCUACAGCUUGCAUAGUAUUUAUUA,0.00119 ± 0.0052,0.000267 ± 0.013,0.00254 ± 0.0037,0.000706 ± 0.011
UCCUGGAUGAGCUUGCAAUCUAUUUAGAAA,0.000105 ± 0.03,0.000257 ± 0.0085,0.000411 ± 0.01,0.000157 ± 0.048
UCCUGGAUGUCCAUGCAUAGUAUUUAGUAA,0.0023 ± 0.0037,0.0012 ± 0.0069,0.00068 ± 0.0045,0.000231 ± 0.03
UCCUGGAUGAGCUUGCAUAGAUAUUAGAAA,0.000574 ± 0.0094,0.000932 ± 0.007,0.000345 ± 0.0095,0.000575 ± 0.012

Sequence,pre-steady-state target cleavage rate [1],pre-steady-state target cleavage rate [2],"pre-steady-state target cleavage rate [3, 4]","pre-steady-state target cleavage rate [3, 5]"
UCCUGCUACAGGAUGCAUAGUAUUUACAAA,0.000678 ± 0.0065,0.000674 ± 0.0067,0.0011 ± 0.0023,0.000283 ± 0.021
UCCUGGUACUGCUUGCAUAGUAUUUUCAAA,0.0013 ± 0.0054,0.00177 ± 0.004,0.00285 ± 0.0022,0.000605 ± 0.014
UCCUGCUACAGCUUGCAUACAAUUUAGAAA,0.000951 ± 0.006,0.000326 ± 0.014,0.003 ± 0.0036,0.00021 ± 0.012
UCCUCCUACAGCUUGCAUACAAUUUAGUAA,0.00109 ± 0.0052,0.00138 ± 0.0042,0.0035 ± 0.0038,0.000538 ± 0.0098
UCCUGCUACAGCUUCGAUAGUAUUUAGAAA,0.000934 ± 0.005,0.000766 ± 0.0075,0.00217 ± 0.0033,0.000158 ± 0.035
UCCUGCUACAGCUACCAUAGUAUUUACAAA,0.001 ± 0.0059,0.000827 ± 0.011,0.00078 ± 0.0042,0.000202 ± 0.034
UCCUGGUACAGCUAGCAUAGUAUUUACAAA,0.0014 ± 0.0043,0.00162 ± 0.004,0.00133 ± 0.0032,0.000266 ± 0.029
UCCUGGAACAGCUUCCAUACUAUUUAGUUA,0.000181 ± 0.032,0.000652 ± 0.011,0.00201 ± 0.0028,0.00021 ± 0.028
UCCUGCUACAGCUUGCAUAGUAUUAAGAAA,0.000942 ± 0.0061,0.00105 ± 0.0065,0.00481 ± 0.0021,0.000431 ± 0.016
UCCUGGUACAGGUUGCAUAGUAUUUAGAAA,0.00161 ± 0.004,0.00242 ± 0.0034,0.00246 ± 0.0028,0.000273 ± 0.034
UCCUGGUACAGCUUGCAUACAUUUUACAAA,0.00122 ± 0.0066,0.000235 ± 0.015,0.000294 ± 0.01,0.000199 ± 0.035
UCCUCCUACAGCUUGCAAUCUAUUUUCAAA,0.000583 ± 0.0078,0.000409 ± 0.014,0.00036 ± 0.011,< 0.0001
UCCUCCUACAGCUUGCAUAGUAUAUACAAA,0.00156 ± 0.0034,0.000988 ± 0.0057,0.00313 ± 0.003,0.000247 ± 0.024
UCCUGGAUGUCGAAGCAUAGUAUUUCAGUUA,0.000924 ± 0.0055,0.000721 ± 0.0086,0.00032 ± 0.0098,0.00068 ± 0.011
UCCUCCUACAGCUUGCAUAGUUAUUACAAA,0.000625 ± 0.0096,0.00101 ± 0.006,0.00183 ± 0.0043,0.000394 ± 0.016
UCCUGGAUGUCCUUGCAUAGUAAUUACUUA,0.000798 ± 0.0083,0.00142 ± 0.0065,0.00155 ± 0.0054,< 0.0001
UCCUGGAUGUGCUUGCAUAGUAUAAUCAAA [g8:g20:cont:t1A],0.000361 ± 0.015,0.000248 ± 0.016,0.000518 ± 0.0052,0.000361 ± 0.023
UCCUGGUACAGGUUGCAUAGUAUUUUCAAA,0.00174 ± 0.0046,0.00102 ± 0.0056,0.0011 ± 0.0033,0.000551 ± 0.015
UCCUGGAUCAGGUUGCAUAGUAUUUUCAAA,0.00187 ± 0.0033,0.00117 ± 0.0054,0.00129 ± 0.0035,< 0.0001
UCCUGGAAGUGCUUGCAUAGUAUUUAGAAA,0.000773 ± 0.0057,0.00283 ± 0.003,0.00379 ± 0.0018,< 0.0001
UCCUGGAUCAGCUUGCAUUCUAUUUAGUAA,0.00075 ± 0.0079,0.00249 ± 0.0036,0.000551 ± 0.0073,0.000191 ± 0.035
UCCUGGAUGUCGAAGCAUAGUUAAAUCAAA [g10:g16:cont:t1A],< 0.0001,0.0005 ± 0.0086,0.000245 ± 0.013,< 0.0001

# No new results follow: an excerpt of the list.
Sequence,pre-steady-state target cleavage rate [1],pre-steady-state target cleavage rate [2],"pre-steady-state target cleavage rate [3, 4]","pre-steady-state target cleavage rate [3, 5]"
UCCUGGAUGUGCUUGCAUAGAAUUAAGUUA,0.00121 ± 0.004,0.00167 ± 0.0036,0.001 ± 0.0051,0.000261 ± 0.03
UCCUGGAUGAGCUACCAUAGUAUUUAGAAA,0.000444 ± 0.012,0.000375 ± 0.0081,0.00151 ± 0.0029,0.000313 ± 0.017
UCCUGGUACAGCUUGCAUAGUAAAAAGAAA,0.00109 ± 0.0064,0.000461 ± 0.009,0.00282 ± 0.0033,0.000494 ± 0.018
UCCUGGAUGUCGUUGCUUAGUAAUUAGUUA,0.00286 ± 0.0034,0.000709 ± 0.011,0.000288 ± 0.015,0.000173 ± 0.047
UCCUCCUACAGCUUGCAUUCAAUUUUCAAA,0.000937 ± 0.0049,0.000635 ± 0.0092,0.00141 ± 0.0052,0.000293 ± 0.014
UCCUGCUACAGCUUGCAUAGUAUUUAUUA,0.00119 ± 0.0052,0.000267 ± 0.013,0.00254 ± 0.0037,0.000706 ± 0.011
UCCUGGAUGAGCUUGCAAUCUAUUUAGAAA,0.000105 ± 0.03,0.000257 ± 0.0085,0.000411 ± 0.01,0.000157 ± 0.048
UCCUGGAUGUCCAUGCAUAGUAUUUAGUAA,0.0023 ± 0.0037,0.0012 ± 0.0069,0.00068 ± 0.0045,0.000231 ± 0.03
UCCUGGAUGAGCUUGCAUAGAUAUUAGAAA,0.000574 ± 0.0094,0.000932 ± 0.007,0.000345 ± 0.0095,0.000575 ± 0.012
